{"sequences": {"note": "Chains of the proteins cited; added tags and fusions are not shown. Residues count along the entry.", "UniProt O60674, 828-1132": "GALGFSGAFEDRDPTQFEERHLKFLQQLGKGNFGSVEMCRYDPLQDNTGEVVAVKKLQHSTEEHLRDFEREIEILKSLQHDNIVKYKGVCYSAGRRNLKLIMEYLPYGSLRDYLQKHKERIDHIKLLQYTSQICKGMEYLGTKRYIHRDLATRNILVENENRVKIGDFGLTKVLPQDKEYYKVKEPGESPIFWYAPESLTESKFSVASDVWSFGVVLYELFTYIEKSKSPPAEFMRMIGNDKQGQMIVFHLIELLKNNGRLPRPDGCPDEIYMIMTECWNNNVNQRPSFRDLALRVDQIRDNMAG"}, "source": "patent US8309718B2", "about": "“4-pyrazolyl-N-arylpyrimidin-2-amines and 4-pyrazolyl-N-heteroarylpyrimidin-2-amines as janus kinase inhibitors” (Incyte Corporation, priority 2007, dated 2012)", "biological_target": "T1, human JAK2 (Homo sapiens, UniProt O60674)", "T1 construct": "JAK2 (a.a. 828-1132); His tag (N); made in house; host or cells: insect cells (baculovirus)", "test": "In vitro JAK kinase assay (HTRF, phosphorylation of biotinylated peptide)", "format": "biochemical", "conditions": "catalytic domain a.a. 828-1132, 30 μM ATP, 500 nM peptide, room temperature 1 hr; read-out: JAK-2 IC50", "experimental": "Compounds herein were tested for inhibitory activity of JAK targets according to the following in vitro assay described in Park et al, Analytical Biochemistry 1999, 269, 94-104. The catalytic domains of human JAK1 (a.a. 837-1142), JAK2 (a.a. 828-1132) and JAK3 (a.a. 781-1124) with an N-terminal His tag were expressed using baculovirus in insect cells and purified. The catalytic activity of JAK1, JAK2 or JAK3 was assayed by measuring the phosphorylation of a biotinylated peptide. The phosphorylated peptide was detected by homogenous time resolved fluorescence (HTRF). IC50s of compounds were measured for each kinase in the reactions that contain the enzyme, ATP and 500 nM peptide in 50 mM Tris (pH 7.8) buffer with 100 mM NaCl, 5 mM DTT, and 0.1 mg/mL (0.01%) BSA. The ATP concentration in the reactions was 90 μM for JAK1, 30 μM for Jak2 and 3 μM for JAK3. Reactions were carried out at room temperature for 1 hr and then stopped with 20 μL 45 mM EDTA, 300 nM SA-APC, 6 nM Eu-Py20 in assay buffer (Perkin Elmer, Boston, Mass.). Binding to the Europium labeled antibody took place for 40 minutes and HTRF signal was measured on a Fusion plate reader (Perkin Elmer, Boston, Mass.). Certain of the above compounds were tested according to this assay.", "note": "pIC50: −log10 of the molar value."}
{"smiles": "N#CCC(C1CCOCC1)n1cc(-c2ccnc(Nc3ccc(C(=O)NC4CCOCC4)cc3)n2)cn1", "note": "(racemic) [Example 309, 4-[(4-{1-[2-cyano-1-(tetrahydro-2H-pyran-4-yl)ethyl]-1H-pyrazol-4-yl}pyrimidin-2-yl)amino]-N-(tetrahydro-2H-pyran-4-yl)benzamide]", "values": [{"measurement": "pIC50", "value": "> 7.00"}]}
